The other results are listed elsewhere or left out.
Legend:
Assay in all cases: log2 fold change, soluble protein after heating vs DMSO (PISA); higher = thermal stabilisation; K562 cells, 10 uM, 30 min; active = over 0.2 and 3.5 SD of the protein, either way, in both replicates (recomputed)
[1] = compound: COC1=CC=C(C=C1)CN2C=CC3=C2C=C(C=C3)C(=O)NO
In short: (§1)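 For each measurement, 10 μM compound was applied for 30 min to K562 cells at 2×10^6 cells/mL. Aliquots were heated for 3 min across 48°C-58°C, pooled, and extracted in PBS with 0.5% NP-40 at 4°C; the supernatant after 21,000xg for 90 min was soluble protein. This was quantified by TMTpro 16plex LC-MS/MS with channel sums equalised, and thermal stability was reported relative to control samples from duplicates, on a log2 fold-change scale.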

By UniProt entry, the sequences of proteins in these tests, tags left out. Where a name states a change or a piece, a line headed by the entry shows the natural chain unless it says otherwise.
UniProt O15234, whole entry, looked up: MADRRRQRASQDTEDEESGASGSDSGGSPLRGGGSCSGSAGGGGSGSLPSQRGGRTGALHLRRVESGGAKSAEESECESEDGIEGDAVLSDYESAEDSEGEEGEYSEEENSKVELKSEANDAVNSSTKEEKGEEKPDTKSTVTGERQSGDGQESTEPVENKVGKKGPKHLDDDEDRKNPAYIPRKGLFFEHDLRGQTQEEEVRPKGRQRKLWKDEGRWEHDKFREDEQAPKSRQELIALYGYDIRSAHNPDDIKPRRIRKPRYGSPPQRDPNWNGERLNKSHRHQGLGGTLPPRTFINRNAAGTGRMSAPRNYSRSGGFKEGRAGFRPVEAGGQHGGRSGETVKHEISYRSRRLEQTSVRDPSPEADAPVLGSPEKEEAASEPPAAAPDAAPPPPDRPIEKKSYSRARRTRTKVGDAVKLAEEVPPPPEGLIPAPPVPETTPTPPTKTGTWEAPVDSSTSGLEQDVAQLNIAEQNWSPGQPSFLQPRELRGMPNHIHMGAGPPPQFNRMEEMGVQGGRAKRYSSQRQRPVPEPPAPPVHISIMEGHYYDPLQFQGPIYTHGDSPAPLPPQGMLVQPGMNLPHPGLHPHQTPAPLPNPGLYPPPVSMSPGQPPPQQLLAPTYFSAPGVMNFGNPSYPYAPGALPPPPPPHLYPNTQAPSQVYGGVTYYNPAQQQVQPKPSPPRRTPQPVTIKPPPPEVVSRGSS
UniProt P16152: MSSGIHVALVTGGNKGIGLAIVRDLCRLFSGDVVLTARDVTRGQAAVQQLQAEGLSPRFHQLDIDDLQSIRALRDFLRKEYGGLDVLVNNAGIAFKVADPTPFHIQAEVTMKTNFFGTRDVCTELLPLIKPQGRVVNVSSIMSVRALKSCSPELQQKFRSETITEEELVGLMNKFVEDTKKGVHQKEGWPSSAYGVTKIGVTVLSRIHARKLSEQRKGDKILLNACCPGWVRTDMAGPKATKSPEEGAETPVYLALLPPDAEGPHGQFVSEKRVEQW
UniProt Q92851: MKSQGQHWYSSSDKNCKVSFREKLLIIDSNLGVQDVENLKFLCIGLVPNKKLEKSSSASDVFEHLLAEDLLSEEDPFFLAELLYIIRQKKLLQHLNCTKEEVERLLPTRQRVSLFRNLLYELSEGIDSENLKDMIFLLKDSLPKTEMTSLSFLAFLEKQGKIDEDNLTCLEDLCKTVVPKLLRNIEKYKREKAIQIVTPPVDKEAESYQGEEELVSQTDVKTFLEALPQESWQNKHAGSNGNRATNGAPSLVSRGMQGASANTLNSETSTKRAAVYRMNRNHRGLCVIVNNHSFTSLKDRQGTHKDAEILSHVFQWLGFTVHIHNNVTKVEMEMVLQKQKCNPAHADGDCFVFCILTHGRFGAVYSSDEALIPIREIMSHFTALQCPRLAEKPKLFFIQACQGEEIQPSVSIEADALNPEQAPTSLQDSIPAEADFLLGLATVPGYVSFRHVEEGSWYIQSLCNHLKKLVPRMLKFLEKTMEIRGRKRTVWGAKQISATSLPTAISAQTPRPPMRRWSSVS
UniProt O75909: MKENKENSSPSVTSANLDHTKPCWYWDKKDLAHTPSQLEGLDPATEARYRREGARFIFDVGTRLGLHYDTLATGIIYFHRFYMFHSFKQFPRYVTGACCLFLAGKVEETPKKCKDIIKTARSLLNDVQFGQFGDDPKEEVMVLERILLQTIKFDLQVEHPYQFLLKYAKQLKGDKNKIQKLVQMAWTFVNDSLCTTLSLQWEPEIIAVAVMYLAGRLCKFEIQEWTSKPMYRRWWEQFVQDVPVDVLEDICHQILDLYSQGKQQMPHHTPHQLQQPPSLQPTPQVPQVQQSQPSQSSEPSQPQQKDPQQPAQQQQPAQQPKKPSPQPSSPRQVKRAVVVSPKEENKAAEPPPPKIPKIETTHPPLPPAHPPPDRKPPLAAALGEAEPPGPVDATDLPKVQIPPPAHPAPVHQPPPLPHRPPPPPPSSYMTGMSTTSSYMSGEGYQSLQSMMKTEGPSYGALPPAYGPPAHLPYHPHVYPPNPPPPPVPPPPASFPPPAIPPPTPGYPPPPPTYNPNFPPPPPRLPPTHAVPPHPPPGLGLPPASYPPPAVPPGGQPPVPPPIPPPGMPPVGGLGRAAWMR
UniProt Q7L3B6: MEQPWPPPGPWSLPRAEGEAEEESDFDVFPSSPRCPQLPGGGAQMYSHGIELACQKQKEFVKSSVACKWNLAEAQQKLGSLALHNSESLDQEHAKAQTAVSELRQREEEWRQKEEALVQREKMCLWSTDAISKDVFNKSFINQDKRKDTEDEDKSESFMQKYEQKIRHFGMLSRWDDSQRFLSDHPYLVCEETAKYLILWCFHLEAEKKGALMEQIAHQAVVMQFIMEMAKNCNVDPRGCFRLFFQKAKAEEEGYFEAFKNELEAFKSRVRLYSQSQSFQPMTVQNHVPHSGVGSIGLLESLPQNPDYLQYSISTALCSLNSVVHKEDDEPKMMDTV
UniProt P42575: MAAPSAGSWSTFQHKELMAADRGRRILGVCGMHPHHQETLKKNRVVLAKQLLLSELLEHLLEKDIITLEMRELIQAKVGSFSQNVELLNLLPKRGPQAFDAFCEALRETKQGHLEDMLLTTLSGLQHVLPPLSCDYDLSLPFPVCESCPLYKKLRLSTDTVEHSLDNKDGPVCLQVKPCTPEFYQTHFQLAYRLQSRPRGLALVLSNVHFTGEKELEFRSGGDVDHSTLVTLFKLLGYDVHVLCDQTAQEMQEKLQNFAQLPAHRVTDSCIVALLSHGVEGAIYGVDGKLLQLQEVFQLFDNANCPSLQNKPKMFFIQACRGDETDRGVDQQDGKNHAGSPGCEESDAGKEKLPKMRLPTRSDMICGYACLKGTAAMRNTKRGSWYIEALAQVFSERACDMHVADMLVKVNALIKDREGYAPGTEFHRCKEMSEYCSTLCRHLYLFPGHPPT
UniProt P19256, whole entry, looked up: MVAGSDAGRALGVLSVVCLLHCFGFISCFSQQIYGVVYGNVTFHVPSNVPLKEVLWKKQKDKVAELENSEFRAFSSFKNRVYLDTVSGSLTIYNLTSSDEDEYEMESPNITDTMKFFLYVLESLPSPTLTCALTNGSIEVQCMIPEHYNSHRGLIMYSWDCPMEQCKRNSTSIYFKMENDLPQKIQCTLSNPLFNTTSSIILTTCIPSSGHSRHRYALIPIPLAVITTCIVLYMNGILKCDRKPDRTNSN
UniProt P35520: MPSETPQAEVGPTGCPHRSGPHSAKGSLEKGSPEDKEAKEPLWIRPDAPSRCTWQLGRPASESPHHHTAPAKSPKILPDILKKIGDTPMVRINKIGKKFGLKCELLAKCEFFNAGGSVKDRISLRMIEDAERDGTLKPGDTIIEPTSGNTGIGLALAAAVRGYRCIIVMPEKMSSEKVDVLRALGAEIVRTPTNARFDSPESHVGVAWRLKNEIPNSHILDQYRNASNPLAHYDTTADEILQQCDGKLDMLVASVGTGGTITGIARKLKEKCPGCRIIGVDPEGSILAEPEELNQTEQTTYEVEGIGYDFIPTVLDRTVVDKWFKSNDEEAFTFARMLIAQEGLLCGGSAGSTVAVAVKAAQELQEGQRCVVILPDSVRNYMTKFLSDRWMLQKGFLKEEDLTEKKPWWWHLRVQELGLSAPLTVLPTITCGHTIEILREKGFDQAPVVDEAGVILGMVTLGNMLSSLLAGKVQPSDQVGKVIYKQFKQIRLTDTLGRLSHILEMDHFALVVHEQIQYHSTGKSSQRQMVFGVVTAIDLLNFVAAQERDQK
UniProt Q8IX12: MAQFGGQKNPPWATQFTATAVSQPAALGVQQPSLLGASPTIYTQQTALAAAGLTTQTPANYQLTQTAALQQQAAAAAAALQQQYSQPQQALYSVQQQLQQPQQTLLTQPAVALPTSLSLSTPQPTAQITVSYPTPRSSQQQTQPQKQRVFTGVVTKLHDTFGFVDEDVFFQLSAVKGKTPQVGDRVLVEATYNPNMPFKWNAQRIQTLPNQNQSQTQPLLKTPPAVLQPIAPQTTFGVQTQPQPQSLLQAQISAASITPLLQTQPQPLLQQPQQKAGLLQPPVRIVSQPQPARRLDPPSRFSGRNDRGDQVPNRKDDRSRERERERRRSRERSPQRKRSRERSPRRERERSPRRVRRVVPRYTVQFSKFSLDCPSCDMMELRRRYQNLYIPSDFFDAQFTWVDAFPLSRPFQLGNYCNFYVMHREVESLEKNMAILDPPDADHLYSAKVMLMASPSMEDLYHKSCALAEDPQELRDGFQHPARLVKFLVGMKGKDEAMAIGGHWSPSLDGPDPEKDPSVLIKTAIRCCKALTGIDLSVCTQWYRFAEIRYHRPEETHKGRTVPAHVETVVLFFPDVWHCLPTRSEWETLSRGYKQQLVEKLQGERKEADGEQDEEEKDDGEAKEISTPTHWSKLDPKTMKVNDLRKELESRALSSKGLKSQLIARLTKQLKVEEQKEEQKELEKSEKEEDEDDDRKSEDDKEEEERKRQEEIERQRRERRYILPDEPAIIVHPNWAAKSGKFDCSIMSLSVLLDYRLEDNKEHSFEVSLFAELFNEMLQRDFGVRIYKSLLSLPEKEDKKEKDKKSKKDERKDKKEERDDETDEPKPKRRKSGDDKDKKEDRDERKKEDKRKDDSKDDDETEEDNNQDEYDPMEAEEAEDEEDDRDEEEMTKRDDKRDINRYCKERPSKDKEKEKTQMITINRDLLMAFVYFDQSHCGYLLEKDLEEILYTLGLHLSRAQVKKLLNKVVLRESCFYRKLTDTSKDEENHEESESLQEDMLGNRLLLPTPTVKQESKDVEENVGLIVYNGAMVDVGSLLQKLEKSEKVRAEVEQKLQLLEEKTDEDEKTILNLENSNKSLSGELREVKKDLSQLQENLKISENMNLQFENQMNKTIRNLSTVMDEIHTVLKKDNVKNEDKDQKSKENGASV
UniProt P14635, whole entry, looked up: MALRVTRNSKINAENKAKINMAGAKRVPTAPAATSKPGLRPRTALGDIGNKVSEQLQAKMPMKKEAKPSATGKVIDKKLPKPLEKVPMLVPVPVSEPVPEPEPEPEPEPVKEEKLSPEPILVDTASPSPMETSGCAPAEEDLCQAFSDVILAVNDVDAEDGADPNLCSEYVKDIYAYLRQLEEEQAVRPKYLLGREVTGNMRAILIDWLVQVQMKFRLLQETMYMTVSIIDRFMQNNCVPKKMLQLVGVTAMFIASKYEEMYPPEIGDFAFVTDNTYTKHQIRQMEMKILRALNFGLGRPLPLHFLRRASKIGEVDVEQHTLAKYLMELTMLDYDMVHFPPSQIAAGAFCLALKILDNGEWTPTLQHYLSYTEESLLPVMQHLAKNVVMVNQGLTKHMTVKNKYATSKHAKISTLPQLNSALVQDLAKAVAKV
UniProt P60033: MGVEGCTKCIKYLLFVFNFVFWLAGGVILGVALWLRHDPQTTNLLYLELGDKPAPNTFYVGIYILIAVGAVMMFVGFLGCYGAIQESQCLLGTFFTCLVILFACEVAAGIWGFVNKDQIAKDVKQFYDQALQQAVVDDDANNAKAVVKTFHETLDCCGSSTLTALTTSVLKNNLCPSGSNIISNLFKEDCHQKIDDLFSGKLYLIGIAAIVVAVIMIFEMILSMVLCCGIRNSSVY
UniProt Q8N350: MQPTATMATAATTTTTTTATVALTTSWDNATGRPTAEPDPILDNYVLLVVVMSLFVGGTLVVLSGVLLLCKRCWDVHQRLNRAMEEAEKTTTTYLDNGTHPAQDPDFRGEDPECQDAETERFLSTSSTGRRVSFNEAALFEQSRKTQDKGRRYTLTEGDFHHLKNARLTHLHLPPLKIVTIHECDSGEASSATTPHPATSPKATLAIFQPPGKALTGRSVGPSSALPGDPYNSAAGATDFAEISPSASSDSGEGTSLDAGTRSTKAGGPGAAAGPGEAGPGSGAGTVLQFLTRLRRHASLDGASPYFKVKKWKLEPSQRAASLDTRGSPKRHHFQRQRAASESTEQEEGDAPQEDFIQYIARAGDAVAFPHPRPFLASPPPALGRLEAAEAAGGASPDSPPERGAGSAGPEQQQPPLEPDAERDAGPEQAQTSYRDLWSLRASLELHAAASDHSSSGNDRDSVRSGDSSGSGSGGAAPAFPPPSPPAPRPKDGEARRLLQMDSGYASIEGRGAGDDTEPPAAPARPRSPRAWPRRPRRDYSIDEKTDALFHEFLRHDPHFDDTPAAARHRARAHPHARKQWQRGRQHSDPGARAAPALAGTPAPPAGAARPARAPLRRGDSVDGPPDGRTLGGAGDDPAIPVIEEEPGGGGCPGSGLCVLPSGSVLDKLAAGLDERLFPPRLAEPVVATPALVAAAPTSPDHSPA
UniProt P24863: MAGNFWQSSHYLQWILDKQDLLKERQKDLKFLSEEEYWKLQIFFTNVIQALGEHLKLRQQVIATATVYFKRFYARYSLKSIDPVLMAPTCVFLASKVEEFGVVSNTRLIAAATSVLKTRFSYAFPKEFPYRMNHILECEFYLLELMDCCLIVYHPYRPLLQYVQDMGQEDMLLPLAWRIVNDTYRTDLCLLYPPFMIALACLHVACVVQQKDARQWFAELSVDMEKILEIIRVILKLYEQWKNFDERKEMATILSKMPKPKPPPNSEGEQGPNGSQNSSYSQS

filanesib = compound: CON(C)C(=O)N1N=C(c2cc(F)ccc2F)S[C@@]1(CCCN)c1ccccc1 [filanesib]
In short: as §1

zotarolimus = compound: CO[C@H]1C[C@@H]2CC[C@@H](C)[C@@](O)(O2)C(=O)C(=O)N2CCCC[C@H]2C(=O)O[C@H]([C@H](C)C[C@@H]2CC[C@H](n3cnnn3)[C@H](OC)C2)CC(=O)[C@H](C)/C=C(\C)[C@@H](O)[C@@H](OC)C(=O)[C@H](C)C[C@H](C)/C=C/C=C/C=C/1C [zotarolimus]
In short: as §1

idasanutlin = compound: COc1cc(C(=O)O)ccc1NC(=O)[C@@H]1N[C@@H](CC(C)(C)C)[C@](C#N)(c2ccc(Cl)cc2F)[C@H]1c1cccc(Cl)c1F [idasanutlin]
In short: as §1

alisertib = compound: COc1cc(Nc2ncc3c(n2)-c2ccc(Cl)cc2C(c2c(F)cccc2OC)=NC3)ccc1C(=O)O [alisertib]
In short: as §1

[2] = compound: COc1cc2nc(-c3cc(F)ccc3O)nc(N[C@@H]3CNC[C@H]3C(C)(C)O)c2cc1OC
In short: as §1

gefitinib = compound: COc1cc2ncnc(Nc3ccc(F)c(Cl)c3)c2cc1OCCCN1CCOCC1 [gefitinib]
In short: as §1

[3] = compound: COc1cccc2cc(-c3nc([C@H]4CC[C@H](C(=O)O)CC4)n4ncnc(N)c34)[nH]c12
In short: as §1

lapatinib = compound: CS(=O)(=O)CCNCc1ccc(-c2ccc3ncnc(Nc4ccc(OCc5cccc(F)c5)c(Cl)c4)c3c2)o1 [lapatinib]
In short: as §1

pictilisib = compound: CS(=O)(=O)N1CCN(Cc2cc3nc(-c4cccc5[nH]ncc45)nc(N4CCOCC4)c3s2)CC1 [pictilisib]
In short: as §1

[4] = compound: CS(=O)(=O)c1ccc(-c2cnc(N)c(C(=O)Nc3ccccc3)n2)cc1
In short: as §1

crizotinib = compound: C[C@@H](Oc1cc(-c2cnn(C3CCNCC3)c2)cnc1N)c1c(Cl)ccc(F)c1Cl [crizotinib]
In short: as §1

[5] = compound: C[C@@H]1COCCN1C2=NC(=NC(=C2)C3(CC3)S(=O)(=O)C)C4=C5C=CNC5=CC=C4
In short: as §1

[6] = compound: C[C@H](C1=CC=C(C=C1)C(=O)NC2=C3C=CNC3=NC=C2)N
In short: as §1

gandotinib = compound: Cc1cc(Nc2cc(CN3CCOCC3)c3nc(C)c(Cc4ccc(Cl)cc4F)n3n2)n[nH]1 [gandotinib]
In short: as §1

[7] = compound: Cc1cc(SCc2sc(-c3ccc(C(F)(F)F)cc3)nc2C)ccc1OCC(=O)O
In short: as §1

doramapimod = compound: Cc1ccc(-n2nc(C(C)(C)C)cc2NC(=O)Nc2ccc(OCCN3CCOCC3)c3ccccc23)cc1 [doramapimod]
In short: as §1

ispinesib = compound: Cc1ccc(C(=O)N(CCCN)[C@@H](c2nc3cc(Cl)ccc3c(=O)n2Cc2ccccc2)C(C)C)cc1 [ispinesib]
In short: as §1

duvelisib = compound: C[C@H](Nc1ncnc2nc[nH]c12)c1cc2cccc(Cl)c2c(=O)n1-c1ccccc1 [duvelisib]
In short: as §1

tozasertib = compound: Cc1cc(Nc2cc(N3CCN(C)CC3)nc(Sc3ccc(NC(=O)C4CC4)cc3)n2)n[nH]1 [tozasertib]
In short: as §1

| Target | log2 fold change [1] | log2 fold change (filanesib) | log2 fold change (zotarolimus) | log2 fold change (idasanutlin) | log2 fold change (alisertib) | log2 fold change [2] | log2 fold change (gefitinib) | log2 fold change [3] | log2 fold change (lapatinib) | log2 fold change (pictilisib) | log2 fold change [4] | log2 fold change (crizotinib) | log2 fold change [5] | log2 fold change [6] | log2 fold change (gandotinib) | log2 fold change [7] | log2 fold change (doramapimod) | log2 fold change (ispinesib) | log2 fold change (duvelisib) | log2 fold change (tozasertib) |
| --- | --- | --- | --- | --- | --- | --- | --- | --- | --- | --- | --- | --- | --- | --- | --- | --- | --- | --- | --- | --- |
| CASC3 (UniProt O15234) | inactive: 0 | inactive: 0.17 | inactive: -0.105 | inactive: 0.038 | inactive: -0.051 | inactive: 0.16 | inactive: 0 | inactive: -0.105 | inactive: -0.077 | inactive: -0.066 | inactive: -0.228 | active: 0.537 | active: -0.412 | inactive: 0.243 | active: 0.484 | inactive: -0.067 | inactive: -0.025 | inactive: -0.094 |  |  |
| CCDC9 (UniProt Q9Y3X0) | inactive: 0.057 | inactive: 0.021 | inactive: -0.11 | inactive: 0.018 | inactive: -0.035 | inactive: 0.02 | inactive: -0.078 | inactive: -0.021 | inactive: 0.003 | inactive: -0.015 | inactive: -0.046 | inactive: 0.016 | inactive: -0.063 | inactive: 0.105 | inactive: 0.194 | inactive: -0.012 | inactive: -0.008 | inactive: -0.215 |  |  |
| CBR1 (UniProt P16152) | inactive: 0 | inactive: -0.024 | inactive: 0.071 | inactive: -0.074 | inactive: -0.036 | inactive: 0.001 | inactive: -0.004 | inactive: 0.028 | inactive: 0.037 | inactive: -0.035 | inactive: 0.006 | inactive: 0.048 | inactive: 0.052 | inactive: -0.163 | inactive: 0.034 | inactive: -0.024 | inactive: 0.003 | inactive: 0.194 |  |  |
| CASP10 isoform 4 (UniProt Q92851) | inactive: 0.012 | inactive: 0.078 | inactive: 0.062 | inactive: -0.049 | inactive: 0.009 | inactive: -0.089 | inactive: -0.036 | inactive: -0.128 | inactive: -0.047 | inactive: 0.079 | inactive: 0.006 | inactive: -0.102 | inactive: 0.015 | inactive: -0.137 | inactive: -0.128 | inactive: 0.201 | inactive: 0.028 | inactive: -0.075 |  |  |
| CCZ1 (UniProt P86791) | inactive: 0.052 | inactive: -0.062 | inactive: 0.044 | inactive: -0.015 | inactive: -0.072 | inactive: -0.036 | inactive: 0.013 | inactive: 0.018 | inactive: -0.005 | inactive: -0.047 | inactive: 0.022 | active: -0.278 | inactive: 0.009 | inactive: 0.005 | inactive: -0.081 | inactive: 0.006 | inactive: -0.036 | inactive: -0.162 |  |  |
| CCNK isoform 4 (UniProt O75909) | inactive: -0.067 | inactive: 0.177 | inactive: 0.163 | inactive: 0.061 | inactive: -0.013 | inactive: -0.021 | inactive: -0.014 | inactive: 0.024 | inactive: 0.066 | inactive: -0.033 | inactive: -0.014 | inactive: -0.023 | inactive: 0.073 | inactive: -0.042 | active: 0.324 | inactive: 0.016 | inactive: 0.157 | inactive: 0.03 |  |  |
| CDC37L1 (UniProt Q7L3B6) | inactive: -0.027 | inactive: 0.047 | inactive: -0.057 | inactive: -0.031 | inactive: -0.009 | inactive: -0.106 | inactive: 0.029 | inactive: -0.037 | inactive: 0.034 | inactive: -0.051 | inactive: 0.007 | inactive: 0.036 | inactive: 0.148 | inactive: -0.013 | inactive: -0.091 | inactive: 0.117 | inactive: -0.036 | inactive: 0.005 |  |  |
| CASP2 (UniProt P42575) | inactive: 0.122 | inactive: -0.02 | inactive: 0.047 | inactive: -0.067 | inactive: -0.019 | inactive: -0.245 | inactive: -0.082 | inactive: 0.072 | active: -0.323 | inactive: 0.069 | inactive: 0.004 | inactive: -0.062 | inactive: 0.023 | inactive: -0.002 | inactive: -0.071 | inactive: 0.05 | inactive: 0.077 | inactive: 0.039 |  |  |
| CCAR2 isoform 2 (UniProt Q8N163) | inactive: -0.038 | inactive: 0.024 | inactive: 0.063 | inactive: -0.065 | inactive: -0.072 | inactive: -0.187 | inactive: -0.03 | inactive: -0.042 | inactive: 0.04 | inactive: -0.034 | inactive: -0.037 | inactive: 0.024 | inactive: 0.046 | inactive: 0.011 | inactive: -0.093 | inactive: 0.169 | inactive: -0.009 | inactive: -0.063 |  |  |
| CAVIN1 (UniProt Q6NZI2) | inactive: -0.012 | inactive: 0.109 | inactive: 0 | inactive: 0.15 | inactive: -0.098 | inactive: -0.107 | inactive: -0.1 | inactive: -0.159 | inactive: 0.089 | inactive: -0.094 | inactive: -0.023 | inactive: -0.046 | inactive: -0.34 | inactive: 0.174 | inactive: 0.145 | inactive: 0.06 | inactive: 0.135 | inactive: 0.067 |  |  |
| CD58 (UniProt P19256) | inactive: -0.067 | inactive: 0.101 | inactive: 0.009 | inactive: 0.014 | inactive: -0.053 | inactive: 0.087 | inactive: 0.077 | inactive: 0.072 | inactive: -0.025 | inactive: 0 | inactive: 0.009 | inactive: 0.134 | inactive: -0.01 | inactive: -0.072 | inactive: -0.122 | inactive: -0.085 | inactive: 0.055 | inactive: 0.062 | inactive: 0.048 | inactive: -0.033 |
| CBS (UniProt P35520) | active: -0.225 | inactive: -0.05 | inactive: 0.044 | inactive: 0.014 | inactive: -0.073 | inactive: 0.024 | inactive: 0.007 | inactive: 0.011 | inactive: -0.026 | inactive: 0.043 | inactive: -0.024 | inactive: 0.044 | inactive: 0.023 | inactive: -0.054 | inactive: -0.033 | inactive: -0.031 | inactive: -0.076 | inactive: -0.019 |  |  |
| CCAR1 (UniProt Q8IX12) | inactive: 0.018 | inactive: -0.105 | inactive: 0.011 | inactive: -0.041 | inactive: -0.056 | inactive: -0.02 | inactive: 0.027 | inactive: 0.014 | inactive: 0.003 | inactive: -0.072 | inactive: 0.004 | inactive: -0.238 | inactive: 0.034 | inactive: -0.016 | active: -0.263 | inactive: 0.067 | inactive: -0.03 | inactive: -0.102 |  |  |
| CCNB1 (UniProt P14635) | inactive: -0.006 | inactive: -0.035 | inactive: -0.009 | inactive: 0.003 | inactive: -0.061 | inactive: 0.015 | inactive: -0.009 | inactive: 0.017 | inactive: -0.044 | inactive: 0.002 | inactive: -0.002 | inactive: -0.021 | inactive: -0.044 | inactive: -0.024 | inactive: -0.004 | inactive: -0.025 | inactive: -0.011 | inactive: 0.043 |  |  |
| CD63 (UniProt P08962) | inactive: -0.053 | active: -0.336 | inactive: -0.01 | inactive: -0.051 | inactive: -0.069 | inactive: -0.031 | inactive: -0.076 | inactive: 0.096 | inactive: -0.002 | inactive: 0.032 | inactive: 0.039 | inactive: -0.076 | inactive: 0.009 | inactive: -0.013 | inactive: -0.023 | inactive: -0.022 | inactive: 0.033 | inactive: -0.092 |  |  |
| CD81 (UniProt P60033) | inactive: -0.051 | inactive: 0.049 | inactive: 0.003 | inactive: -0.014 | inactive: -0.007 | inactive: 0.008 | inactive: 0.043 | inactive: 0.052 | inactive: -0.032 | inactive: 0.138 | inactive: -0.03 | inactive: 0.162 | inactive: 0.107 | inactive: -0.232 | inactive: 0.019 | inactive: -0.084 | inactive: -0.025 | inactive: 0.207 |  |  |
| CBARP (UniProt Q8N350) | inactive: 0.05 | inactive: 0.037 | inactive: 0.166 | inactive: -0.089 |  |  | inactive: -0.01 |  |  | inactive: 0.126 | inactive: 0.12 | inactive: -0.069 | inactive: 0.02 | inactive: 0.045 | inactive: -0.061 | inactive: -0.13 | inactive: 0.042 | inactive: 0.058 | inactive: -0.032 | inactive: -0.16 |
| CCNC (UniProt P24863) | inactive: -0.198 | inactive: 0.013 | inactive: -0.026 | inactive: -0.156 | inactive: -0.036 |  |  | inactive: 0.013 |  | inactive: 0.079 | inactive: 0.051 | inactive: -0.004 | inactive: 0.027 | inactive: 0.247 | inactive: -0.088 | inactive: 0.018 | active: 0.373 | inactive: 0.059 |  |  |

Some values from the results shown:
Entry for CBS (UniProt P35520) under log2 fold change [1]: active: -0.225
Entry for CCDC9 (UniProt Q9Y3X0) under log2 fold change [5]: inactive: -0.063
